This is one part of the list.
Key:
Experiment in all cases: log2 fold change, soluble protein after heating vs DMSO (PISA); higher = thermal stabilisation; K562 cells, 10 uM, 30 min; active = over 0.2 and 3.5 SD of the protein, either way, in both replicates (recomputed)
bafetinib = compound: Cc1ccc(NC(=O)c2ccc(CN3CC[C@H](N(C)C)C3)c(C(F)(F)F)c2)cc1Nc1nccc(-c2cncnc2)n1 [bafetinib]
Outline: (§1)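 K562 cells (2×10^6 cells/mL) were treated with 10 μM compound for 30 min, and aliquots were heated for 3 min over 48°C-58°C. Pooled aliquots were extracted in PBS with 0.5% NP-40 at 4°C, and the supernatant after 21,000xg for 90 min was measured by TMTpro 16plex LC-MS/MS with channel sums equalised. Reported thermal stability, relative to control samples and from duplicates, is a log2 fold change.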

Protein sequences, listed by entry. Tags and fused reporters are not part of them. Lines headed by an entry give the natural chain unless they say otherwise; changes in a name come on top.
UniProt Q9P2E9: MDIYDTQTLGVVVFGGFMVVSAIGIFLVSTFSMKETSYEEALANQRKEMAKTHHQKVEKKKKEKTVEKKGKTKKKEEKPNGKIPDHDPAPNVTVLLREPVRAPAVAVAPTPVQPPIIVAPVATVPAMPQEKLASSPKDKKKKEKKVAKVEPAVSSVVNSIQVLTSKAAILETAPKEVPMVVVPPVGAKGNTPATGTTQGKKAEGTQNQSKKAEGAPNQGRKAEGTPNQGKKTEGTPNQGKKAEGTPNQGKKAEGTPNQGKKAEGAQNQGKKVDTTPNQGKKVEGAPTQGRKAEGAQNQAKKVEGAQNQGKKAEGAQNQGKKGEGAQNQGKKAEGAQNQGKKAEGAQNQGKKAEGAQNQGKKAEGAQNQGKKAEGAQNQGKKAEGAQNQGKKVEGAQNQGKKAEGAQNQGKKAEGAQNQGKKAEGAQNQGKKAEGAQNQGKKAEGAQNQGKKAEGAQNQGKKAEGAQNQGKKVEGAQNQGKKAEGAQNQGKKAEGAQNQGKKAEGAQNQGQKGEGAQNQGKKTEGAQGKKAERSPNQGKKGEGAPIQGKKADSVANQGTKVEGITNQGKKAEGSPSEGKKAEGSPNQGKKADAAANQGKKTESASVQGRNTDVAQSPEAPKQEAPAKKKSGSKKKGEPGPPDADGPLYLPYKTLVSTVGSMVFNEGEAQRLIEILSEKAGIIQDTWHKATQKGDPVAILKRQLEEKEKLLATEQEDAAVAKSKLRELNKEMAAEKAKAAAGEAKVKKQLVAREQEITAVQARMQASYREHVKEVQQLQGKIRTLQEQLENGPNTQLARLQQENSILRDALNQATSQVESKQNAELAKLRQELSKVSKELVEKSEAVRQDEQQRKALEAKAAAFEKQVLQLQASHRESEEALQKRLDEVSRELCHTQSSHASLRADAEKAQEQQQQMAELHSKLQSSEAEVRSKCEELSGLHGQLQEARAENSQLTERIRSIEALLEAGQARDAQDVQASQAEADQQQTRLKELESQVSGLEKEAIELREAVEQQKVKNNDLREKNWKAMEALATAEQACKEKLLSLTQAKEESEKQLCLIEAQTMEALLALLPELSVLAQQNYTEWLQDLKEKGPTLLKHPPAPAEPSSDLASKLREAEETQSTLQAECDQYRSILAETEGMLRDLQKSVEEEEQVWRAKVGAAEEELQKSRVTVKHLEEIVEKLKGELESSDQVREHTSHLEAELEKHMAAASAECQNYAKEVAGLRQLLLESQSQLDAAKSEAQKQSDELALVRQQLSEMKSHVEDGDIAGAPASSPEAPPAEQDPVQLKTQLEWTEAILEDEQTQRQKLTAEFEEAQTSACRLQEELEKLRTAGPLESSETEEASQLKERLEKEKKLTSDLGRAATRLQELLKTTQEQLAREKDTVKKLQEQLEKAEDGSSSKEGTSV
UniProt Q8TA86: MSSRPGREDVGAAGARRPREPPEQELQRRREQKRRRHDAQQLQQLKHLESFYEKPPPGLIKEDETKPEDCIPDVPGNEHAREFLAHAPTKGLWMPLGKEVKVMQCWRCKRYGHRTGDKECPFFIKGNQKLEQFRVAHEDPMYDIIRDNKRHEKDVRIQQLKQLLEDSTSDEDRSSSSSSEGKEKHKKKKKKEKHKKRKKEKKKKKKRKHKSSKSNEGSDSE
UniProt Q9HB90, whole entry, looked up: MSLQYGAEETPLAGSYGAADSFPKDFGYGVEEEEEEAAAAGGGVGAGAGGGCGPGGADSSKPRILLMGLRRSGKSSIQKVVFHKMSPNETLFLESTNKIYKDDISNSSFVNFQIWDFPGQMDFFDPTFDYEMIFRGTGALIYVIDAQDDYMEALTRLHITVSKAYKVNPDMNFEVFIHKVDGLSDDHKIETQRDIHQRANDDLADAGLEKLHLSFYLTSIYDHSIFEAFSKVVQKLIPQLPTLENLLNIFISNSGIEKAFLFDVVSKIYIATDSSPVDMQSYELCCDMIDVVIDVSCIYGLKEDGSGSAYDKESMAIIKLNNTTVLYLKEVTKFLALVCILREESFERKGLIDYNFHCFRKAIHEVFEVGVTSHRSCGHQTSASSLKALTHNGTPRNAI
UniProt Q9BWH6: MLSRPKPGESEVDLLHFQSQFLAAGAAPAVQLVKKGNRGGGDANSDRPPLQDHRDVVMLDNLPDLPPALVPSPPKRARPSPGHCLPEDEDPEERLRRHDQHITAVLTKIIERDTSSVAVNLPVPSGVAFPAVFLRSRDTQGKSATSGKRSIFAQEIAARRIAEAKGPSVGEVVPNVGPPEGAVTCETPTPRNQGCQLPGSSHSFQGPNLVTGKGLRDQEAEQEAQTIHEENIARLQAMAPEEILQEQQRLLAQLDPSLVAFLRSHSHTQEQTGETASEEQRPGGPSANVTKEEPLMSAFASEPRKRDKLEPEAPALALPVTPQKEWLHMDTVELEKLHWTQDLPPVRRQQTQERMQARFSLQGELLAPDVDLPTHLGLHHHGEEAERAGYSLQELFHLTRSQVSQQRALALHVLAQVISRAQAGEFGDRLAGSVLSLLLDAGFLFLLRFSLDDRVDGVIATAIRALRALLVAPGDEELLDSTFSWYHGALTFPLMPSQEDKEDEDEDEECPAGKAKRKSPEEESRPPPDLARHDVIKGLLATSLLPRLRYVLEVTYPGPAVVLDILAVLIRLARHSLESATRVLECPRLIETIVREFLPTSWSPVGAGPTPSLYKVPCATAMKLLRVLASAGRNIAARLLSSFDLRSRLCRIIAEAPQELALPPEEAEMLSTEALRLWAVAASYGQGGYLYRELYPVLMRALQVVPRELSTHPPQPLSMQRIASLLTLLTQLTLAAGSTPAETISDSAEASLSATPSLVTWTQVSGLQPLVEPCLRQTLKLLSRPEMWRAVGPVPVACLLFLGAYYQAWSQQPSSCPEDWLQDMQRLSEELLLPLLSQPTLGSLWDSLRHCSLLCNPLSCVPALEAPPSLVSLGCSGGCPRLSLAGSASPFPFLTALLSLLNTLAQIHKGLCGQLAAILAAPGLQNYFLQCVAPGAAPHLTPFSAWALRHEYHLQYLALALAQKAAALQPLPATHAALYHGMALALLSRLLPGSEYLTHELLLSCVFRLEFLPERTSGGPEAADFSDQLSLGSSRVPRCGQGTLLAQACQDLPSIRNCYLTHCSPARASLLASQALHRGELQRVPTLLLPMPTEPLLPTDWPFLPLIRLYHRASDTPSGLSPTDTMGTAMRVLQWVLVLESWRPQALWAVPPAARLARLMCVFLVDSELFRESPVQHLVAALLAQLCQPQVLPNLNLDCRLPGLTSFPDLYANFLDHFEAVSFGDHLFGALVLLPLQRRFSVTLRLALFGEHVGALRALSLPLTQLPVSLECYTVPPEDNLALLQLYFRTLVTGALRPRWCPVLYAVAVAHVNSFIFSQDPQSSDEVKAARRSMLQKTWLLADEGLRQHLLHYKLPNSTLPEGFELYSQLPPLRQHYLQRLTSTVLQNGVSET
UniProt O60942: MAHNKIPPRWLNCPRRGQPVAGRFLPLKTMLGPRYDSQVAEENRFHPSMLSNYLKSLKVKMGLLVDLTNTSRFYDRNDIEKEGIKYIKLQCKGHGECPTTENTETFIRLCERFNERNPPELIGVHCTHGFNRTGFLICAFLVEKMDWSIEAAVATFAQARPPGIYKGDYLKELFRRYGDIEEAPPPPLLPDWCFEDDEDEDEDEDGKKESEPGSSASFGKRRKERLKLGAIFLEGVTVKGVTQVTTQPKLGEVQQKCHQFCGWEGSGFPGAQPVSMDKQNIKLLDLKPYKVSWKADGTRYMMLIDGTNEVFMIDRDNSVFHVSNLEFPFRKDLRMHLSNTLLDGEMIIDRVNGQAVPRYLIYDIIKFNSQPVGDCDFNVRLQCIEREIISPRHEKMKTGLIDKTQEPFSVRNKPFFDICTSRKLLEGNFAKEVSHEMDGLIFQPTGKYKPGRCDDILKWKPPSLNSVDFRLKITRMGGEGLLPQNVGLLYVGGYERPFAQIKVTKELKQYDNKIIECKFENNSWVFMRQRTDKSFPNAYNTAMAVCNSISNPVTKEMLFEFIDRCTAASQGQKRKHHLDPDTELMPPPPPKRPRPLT
UniProt P60602: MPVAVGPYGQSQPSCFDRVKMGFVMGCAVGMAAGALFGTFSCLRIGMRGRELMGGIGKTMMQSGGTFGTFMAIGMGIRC
UniProt Q9H4A4: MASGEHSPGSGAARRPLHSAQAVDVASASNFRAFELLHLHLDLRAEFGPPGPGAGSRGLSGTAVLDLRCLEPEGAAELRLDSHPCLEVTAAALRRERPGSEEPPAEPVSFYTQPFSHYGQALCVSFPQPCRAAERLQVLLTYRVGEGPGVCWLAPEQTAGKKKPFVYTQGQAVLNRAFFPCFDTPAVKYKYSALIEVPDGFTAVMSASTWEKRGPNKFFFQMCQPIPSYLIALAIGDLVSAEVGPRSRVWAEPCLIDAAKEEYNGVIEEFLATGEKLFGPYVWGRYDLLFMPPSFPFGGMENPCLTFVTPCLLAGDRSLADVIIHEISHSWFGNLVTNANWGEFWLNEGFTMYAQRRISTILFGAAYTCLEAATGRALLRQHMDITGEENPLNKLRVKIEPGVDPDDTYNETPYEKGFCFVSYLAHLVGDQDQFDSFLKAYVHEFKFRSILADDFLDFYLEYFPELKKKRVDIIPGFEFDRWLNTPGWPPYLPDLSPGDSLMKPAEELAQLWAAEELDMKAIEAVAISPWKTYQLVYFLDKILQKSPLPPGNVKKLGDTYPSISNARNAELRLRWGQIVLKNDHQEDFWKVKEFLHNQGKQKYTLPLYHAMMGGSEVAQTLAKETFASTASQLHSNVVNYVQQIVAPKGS

[1] = compound: Cc1cccc(CC(=O)N2CCc3c2ccc(-c2cn(C)c4ncnc(N)c24)c3F)n1
Outline: as §1

nilotinib = compound: Cc1cn(-c2cc(NC(=O)c3ccc(C)c(Nc4nccc(-c5cccnc5)n4)c3)cc(C(F)(F)F)c2)cn1 [nilotinib]
Outline: as §1

[2] = compound: Cc1nc(Nc2n[nH]c3c2CN(C(=O)N[C@H](CN(C)C)c2ccccc2)C3(C)C)c2sccc2n1
Outline: as §1

dasatinib = compound: Cc1nc(Nc2ncc(C(=O)Nc3c(C)cccc3Cl)s2)cc(N2CCN(CCO)CC2)n1 [dasatinib]
Outline: as §1

[3] = compound: Cc1ncc(-c2ccnc(Nc3ccc(S(C)(=O)=O)cc3)n2)n1C(C)C
Outline: as §1

[4] = compound: Cn1cc(-c2ccc3c(c2)CCN3C(=O)Cc2cccc(C(F)(F)F)c2)c2c(N)ncnc21
Outline: as §1

[5] = compound: Cn1cc(-c2ccc3nnc(C(F)(F)c4ccc5ncccc5c4)n3n2)cn1
Outline: as §1

tipifarnib = compound: Cn1cncc1[C@@](N)(c1ccc(Cl)cc1)c1ccc2c(c1)c(-c1cccc(Cl)c1)cc(=O)n2C [tipifarnib]
Outline: as §1

mubritinib = compound: FC(F)(F)c1ccc(/C=C/c2nc(COc3ccc(CCCCn4ccnn4)cc3)co2)cc1 [mubritinib]
Outline: as §1

[6] = compound: NC(=O)Nc1cc(-c2cccc(F)c2)sc1C(=O)N[C@H]1CCCNC1
Outline: as §1

[7] = compound: NC(=O)c1cnc(N[C@@H]2CCCC[C@@H]2N)nc1Nc1cccc(-n2nccn2)c1
Outline: as §1

[8] = compound: NC1(c2ccc(-c3nc4ccn5c(=O)[nH]nc5c4cc3-c3ccccc3)cc2)CCC1
Outline: as §1

[9] = compound: NCC(=O)Nc1ccc(-n2nc(C(F)(F)F)cc2-c2ccc3c(ccc4ccccc43)c2)cc1
Outline: as §1

entinostat = compound: Nc1ccccc1NC(=O)c1ccc(CNC(=O)OCc2cccnc2)cc1 [entinostat]
Outline: as §1

vorinostat = compound: O=C(CCCCCCC(=O)Nc1ccccc1)NO [vorinostat]
Outline: as §1

citarinostat = compound: O=C(CCCCCCNC(=O)c1cnc(N(c2ccccc2)c2ccccc2Cl)nc1)NO [citarinostat]
Outline: as §1

silmitasertib = compound: O=C(O)c1ccc2c(c1)nc(Nc1cccc(Cl)c1)c1ccncc12 [silmitasertib]
Outline: as §1

[10] = compound: O=C1NC(=O)C(c2cnc3ccccn23)=C1c1cn2c3c(cc(F)cc13)CN(C(=O)N1CCCCC1)CC2
Outline: as §1

[11] = compound: c1cc(OCCN2CCCCC2)cc(-c2n[nH]c3ccc(-c4nnc[nH]4)cc23)c1
Outline: as §1

Target | log2 fold change (bafetinib) | log2 fold change [1] | log2 fold change (nilotinib) | log2 fold change [2] | log2 fold change (dasatinib) | log2 fold change [3] | log2 fold change [4] | log2 fold change [5] | log2 fold change (tipifarnib) | log2 fold change (mubritinib) | log2 fold change [6] | log2 fold change [7] | log2 fold change [8] | log2 fold change [9] | log2 fold change (entinostat) | log2 fold change (vorinostat) | log2 fold change (citarinostat) | log2 fold change (silmitasertib) | log2 fold change [10] | log2 fold change [11]
RRBP1 (UniProt Q9P2E9) | inactive: 0.282 | inactive: -0.054 | inactive: -0.031 | inactive: 0.015 | inactive: 0.169 | inactive: -0.014 | inactive: -0.369 | inactive: -0.208 | inactive: 0.236 | inactive: -0.089 | inactive: 0.128 | inactive: 0.132 | inactive: 0.372 | inactive: 0.159 | inactive: -0.092 | inactive: -0.089 | inactive: -0.164 | inactive: 0.227 | inactive: 0.297 | inactive: -0.195
RP9 (UniProt Q8TA86) | inactive: 0.215 | inactive: 0.074 | inactive: -0.065 | inactive: -0.012 | inactive: 0 | inactive: 0.01 | inactive: -0.121 | inactive: -0.147 | inactive: 0.097 | inactive: -0.146 | inactive: 0.121 | inactive: 0.224 | inactive: 0.167 | – | inactive: -0.005 | inactive: 0.04 | inactive: -0.029 | inactive: 0.104 | inactive: 0.164 | inactive: -0.185
RRAGC (UniProt Q9HB90) | inactive: -0.07 | inactive: -0.054 | inactive: -0.005 | inactive: 0.022 | inactive: 0.05 | inactive: -0.021 | inactive: 0.001 | inactive: 0.05 | inactive: -0.027 | inactive: 0.031 | inactive: -0.001 | inactive: -0.091 | active: -0.265 | inactive: -0.069 | inactive: -0.004 | inactive: -0.015 | inactive: 0.041 | inactive: 0.014 | inactive: 0.011 | inactive: -0.027
RPAP1 (UniProt Q9BWH6) | inactive: -0.036 | inactive: 0 | inactive: -0.042 | inactive: -0.046 | inactive: -0.067 | inactive: 0.007 | inactive: 0.002 | inactive: -0.082 | inactive: -0.011 | inactive: 0.098 | inactive: 0.027 | inactive: -0.019 | inactive: -0.068 | inactive: -0.05 | inactive: 0.006 | inactive: 0.019 | inactive: 0.045 | inactive: 0.04 | inactive: 0.03 | inactive: -0.021
RPL26 (UniProt P61254) | inactive: 0.442 | inactive: 0.049 | inactive: 0.108 | inactive: 0.062 | inactive: 0.177 | inactive: -0.019 | inactive: -0.294 | inactive: -0.364 | inactive: 0.235 | inactive: -0.258 | inactive: 0.664 | inactive: 0.387 | inactive: 0.389 | inactive: 0.43 | inactive: 0.05 | inactive: -0.055 | inactive: -0.081 | inactive: -0.081 | inactive: 0.46 | inactive: 0.205
RPL36 (UniProt Q9Y3U8) | inactive: 0.511 | inactive: 0.02 | inactive: -0.053 | inactive: 0.225 | inactive: 0.311 | inactive: -0.055 | inactive: -0.468 | inactive: -0.283 | inactive: 0.397 | inactive: -0.304 | inactive: 0.245 | inactive: 0.194 | inactive: 0.437 | inactive: 0.365 | inactive: -0.104 | inactive: -0.023 | inactive: -0.163 | inactive: 0.183 | inactive: 0.367 | inactive: -0.306
RNGTT (UniProt O60942) | inactive: 0.143 | inactive: 0.03 | inactive: -0.007 | inactive: -0.096 | inactive: -0.172 | inactive: 0.042 | inactive: 0.015 | inactive: 0.028 | inactive: -0.07 | inactive: -0.045 | inactive: -0.002 | inactive: -0.076 | inactive: -0.086 | inactive: -0.084 | inactive: 0.041 | inactive: -0.082 | inactive: 0.099 | inactive: 0.013 | inactive: 0.026 | inactive: 0.014
ROMO1 (UniProt P60602) | inactive: 0.056 | inactive: -0.022 | inactive: -0.001 | inactive: 0.027 | inactive: -0.03 | inactive: -0.039 | inactive: 0.066 | inactive: 0.063 | inactive: 0.062 | inactive: 0.01 | inactive: -0.105 | inactive: 0.046 | inactive: -0.051 | – | inactive: 0.011 | inactive: -0.013 | inactive: 0.072 | inactive: 0.032 | inactive: 0.062 | inactive: -0.042
RPL4 (UniProt P36578) | inactive: 0.611 | inactive: -0.001 | inactive: -0.004 | inactive: 0.227 | inactive: 0.261 | inactive: -0.045 | inactive: -0.609 | inactive: -0.304 | inactive: 0.427 | inactive: -0.327 | inactive: 0.266 | inactive: 0.204 | inactive: 0.474 | inactive: 0.341 | inactive: -0.125 | inactive: -0.028 | inactive: -0.209 | inactive: 0.214 | inactive: 0.323 | inactive: -0.275
RNPEP (UniProt Q9H4A4) | inactive: 0.003 | inactive: 0.035 | inactive: -0.004 | inactive: -0.041 | inactive: -0.134 | inactive: 0.025 | inactive: 0.012 | inactive: 0.043 | inactive: -0.116 | inactive: 0.051 | inactive: -0.001 | inactive: -0.093 | inactive: -0.086 | inactive: -0.027 | inactive: 0.042 | inactive: 0.033 | inactive: 0.018 | inactive: 0.031 | inactive: -0.017 | inactive: -0.033
RPL35A (UniProt P18077) | inactive: 0.56 | inactive: -0.002 | inactive: -0.004 | inactive: 0.321 | inactive: 0.33 | inactive: -0.042 | inactive: -0.634 | inactive: -0.212 | inactive: 0.481 | inactive: -0.338 | inactive: 0.253 | inactive: 0.131 | inactive: 0.465 | inactive: 0.283 | inactive: -0.113 | inactive: -0.016 | inactive: -0.206 | inactive: 0.245 | inactive: 0.199 | inactive: -0.287
RPL37 (UniProt P61927) | inactive: 0.41 | inactive: 0.047 | inactive: 0.014 | inactive: 0.185 | inactive: 0.272 | inactive: -0.03 | inactive: -0.406 | inactive: -0.209 | inactive: 0.151 | inactive: -0.24 | inactive: 0.185 | inactive: 0.129 | inactive: 0.375 | inactive: 0.193 | inactive: -0.057 | inactive: -0.04 | inactive: -0.109 | inactive: 0.141 | – | inactive: -0.097

Reference: the supplement of paper PMC10849652
